Laboratory results published in PMC7939435.
These are yes or no findings as the source states them, for the method shown. In cells and extracts the contact can be indirect. Binding calls can cover weak binding; strength is not graded here. Sequences can lack the tags named with a protein.

Key:
Experiment in all cases: co-IP; GFP-tagged Gag version immunoprecipitated from yeast extract with polyclonal anti-GFP and Protein A-Sepharose, 50 mM Tris pH 7.5, 400 mM NaCl, 1% Triton X-100, 10% glycerol, 4 °C overnight; Bro1 or Vps23 detected by anti-HA or anti-Myc blot; also done with Δbro1 or Δvps23 cells (Fig. S12 A-C)
[1] = target: Gag-GFP (expressed in yeast) (HIV-1)
[2] = target: Gag(MA3*/ΔNCA)-GFP (expressed in yeast) (HIV-1)
[3] = target: Gag(V35E)-GFP (expressed in yeast) (HIV-1)

Measured: binding

B1: Bro1 (genomically epitope-tagged) (protein, UniProt P48582 1-844)
chain: MKPYLFDLKLKDTEKLDWKKGLSSYLKKSYGSSQWRTFYDEKATSELDHLRNNANGELAPSSLSEQNLKYYSFLEHLYFRLGSKGSRLKMDFTWYDAEYSSAQKGLKYTQHTLAFEKSCTLFNIAVIFTQIARENINEDYKNSIANLTKAFSCFEYLSENFLNSPSVDLQSENTRFLANICHAEAQELFVLKLLNDQISSKQYTLISKLSRATCNLFQKCHDFMKEIDDDVAIYGEPKWKTTVTCKLHFYKSLSAYYHGLHLEEENRVGEAIAFLDFSMQQLISSLPFKTWLVEFIDFDGFKETLEKKQKELIKDNDFIYHESVPAVVQVDSIKALDAIKSPTWEKILEPYMQDVANKCDSLYRGIIPLDVYEKESIYSEEKATLLRKQVEETETANLEYSSFIEFTNLPRLLSDLEKQFSDGNIFSNTDTQGQLMRDQIQTWCKFIQTNEFRDIEEQMNKIVFKRKQILEILSALPNDQKENVTKLKSSLVAASNSDEKLFACVKPHIVEINLLNDNGKIWKKFDEFNRNTPPQPSLLDIDDTKNDKILELLKQVKGHAEDLRTLKEERSRNLSELRDEINNDDITKLLIINKGKSDVELKDLFEVELEKFEPLSTRIEATIYKQSSMIDDIKAKLDEIFHLSNFKDKSSGEEKFLEDRKNFFDKLQEAVKSFSIFASDLPKGIEFYDSLFNMSRDLAERVRVAKQTEDSTANSPAPPLPPLDSKASVVGGPPLLPQKSAAFQSLSRQGLNLGDQFQNLKISAGSDLPQGPGIPPRTYEASPYAATPTMAAPPVPPKQSQEDMYDLRRRKAVENEERELQENPTSFYNRPSVFDENMYSKYSS
binds: all assays above

B2: Vps23 (genomically epitope-tagged) (protein, UniProt P25604 1-385)
chain: MSANGKISVPEAVVNWLFKVIQPIYNDGRTTFHDSLALLDNFHSLRPRTRVFTHSDGTPQLLLSIYGTISTGEDGSSPHSIPVIMWVPSMYPVKPPFISINLENFDMNTISSSLPIQEYIDSNGWIALPILHCWDPAAMNLIMVVQELMSLLHEPPQDQAPSLPPKPNTQLQQEQNTPPLPPKPKSPHLKPPLPPPPPPQPASNALDLMDMDNTDISPTNHHEMLQNLQTVVNELYREDVDYVADKILTRQTVMQESIARFHEIIAIDKNHLRAVEQAIEQTMHSLNAQIDVLTANRAKVQQFSSTSHVDDEDVNSIAVAKTDGLNQLYNLVAQDYALTDTIECLSRMLHRGTIPLDTFVKQGRELARQQFLVRWHIQRITSPLS
binds: all assays above
